Source: the supplement of paper PMC10849652
The other results are listed elsewhere or left out.

Sequences of proteins named here, by UniProt entry; tags and fusion partners are left off. A change or cut given only in a name is not applied to a line headed by its entry.
UniProt Q9H993: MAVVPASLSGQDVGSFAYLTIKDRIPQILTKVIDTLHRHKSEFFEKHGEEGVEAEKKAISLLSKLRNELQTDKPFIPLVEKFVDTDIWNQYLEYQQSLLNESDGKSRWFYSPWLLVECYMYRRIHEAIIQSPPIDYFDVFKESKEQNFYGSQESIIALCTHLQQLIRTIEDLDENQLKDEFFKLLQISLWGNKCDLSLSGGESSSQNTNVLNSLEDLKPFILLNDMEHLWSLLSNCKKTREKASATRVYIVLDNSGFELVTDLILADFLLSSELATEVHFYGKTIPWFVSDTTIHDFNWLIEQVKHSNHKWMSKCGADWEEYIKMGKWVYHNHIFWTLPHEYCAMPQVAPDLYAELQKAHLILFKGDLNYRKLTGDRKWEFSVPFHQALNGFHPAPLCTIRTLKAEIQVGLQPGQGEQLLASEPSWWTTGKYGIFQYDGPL
UniProt Q13510, whole entry, looked up: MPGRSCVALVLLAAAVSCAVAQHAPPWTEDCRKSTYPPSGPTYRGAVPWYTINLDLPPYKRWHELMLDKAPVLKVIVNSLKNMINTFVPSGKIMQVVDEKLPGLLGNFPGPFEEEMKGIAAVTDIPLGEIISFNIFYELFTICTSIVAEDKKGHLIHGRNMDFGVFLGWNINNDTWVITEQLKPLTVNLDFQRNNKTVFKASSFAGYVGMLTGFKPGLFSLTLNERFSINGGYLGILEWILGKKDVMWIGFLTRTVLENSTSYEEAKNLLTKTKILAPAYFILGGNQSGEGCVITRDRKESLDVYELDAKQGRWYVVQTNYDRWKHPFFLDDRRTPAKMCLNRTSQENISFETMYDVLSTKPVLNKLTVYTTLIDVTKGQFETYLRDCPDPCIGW
UniProt Q0VD83: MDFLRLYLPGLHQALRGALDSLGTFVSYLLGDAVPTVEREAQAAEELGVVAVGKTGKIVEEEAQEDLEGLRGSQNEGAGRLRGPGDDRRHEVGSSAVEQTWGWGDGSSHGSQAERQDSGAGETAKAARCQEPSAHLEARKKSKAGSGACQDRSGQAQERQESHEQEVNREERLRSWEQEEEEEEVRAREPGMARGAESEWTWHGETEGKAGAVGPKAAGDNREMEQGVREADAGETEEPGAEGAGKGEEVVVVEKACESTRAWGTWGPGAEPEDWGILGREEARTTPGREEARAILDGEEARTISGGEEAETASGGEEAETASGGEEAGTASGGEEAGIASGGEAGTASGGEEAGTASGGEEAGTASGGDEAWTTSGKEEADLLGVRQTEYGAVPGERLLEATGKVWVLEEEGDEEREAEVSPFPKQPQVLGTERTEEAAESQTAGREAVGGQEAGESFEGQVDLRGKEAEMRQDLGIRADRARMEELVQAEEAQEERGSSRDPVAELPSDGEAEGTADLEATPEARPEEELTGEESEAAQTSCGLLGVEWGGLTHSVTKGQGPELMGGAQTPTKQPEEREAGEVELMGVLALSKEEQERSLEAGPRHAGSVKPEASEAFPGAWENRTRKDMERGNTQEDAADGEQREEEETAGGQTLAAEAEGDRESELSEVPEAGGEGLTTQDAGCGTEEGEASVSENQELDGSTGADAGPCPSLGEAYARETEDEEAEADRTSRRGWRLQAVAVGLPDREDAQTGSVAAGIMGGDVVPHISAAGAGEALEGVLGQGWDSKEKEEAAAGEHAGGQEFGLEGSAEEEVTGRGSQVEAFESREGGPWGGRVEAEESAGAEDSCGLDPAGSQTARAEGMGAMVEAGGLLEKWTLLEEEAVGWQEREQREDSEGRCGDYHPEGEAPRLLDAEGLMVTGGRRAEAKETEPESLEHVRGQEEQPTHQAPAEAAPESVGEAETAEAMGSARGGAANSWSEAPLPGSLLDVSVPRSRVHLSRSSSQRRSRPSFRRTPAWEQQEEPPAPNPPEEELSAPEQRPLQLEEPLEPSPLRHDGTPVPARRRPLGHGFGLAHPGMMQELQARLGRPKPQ
UniProt Q9UH62: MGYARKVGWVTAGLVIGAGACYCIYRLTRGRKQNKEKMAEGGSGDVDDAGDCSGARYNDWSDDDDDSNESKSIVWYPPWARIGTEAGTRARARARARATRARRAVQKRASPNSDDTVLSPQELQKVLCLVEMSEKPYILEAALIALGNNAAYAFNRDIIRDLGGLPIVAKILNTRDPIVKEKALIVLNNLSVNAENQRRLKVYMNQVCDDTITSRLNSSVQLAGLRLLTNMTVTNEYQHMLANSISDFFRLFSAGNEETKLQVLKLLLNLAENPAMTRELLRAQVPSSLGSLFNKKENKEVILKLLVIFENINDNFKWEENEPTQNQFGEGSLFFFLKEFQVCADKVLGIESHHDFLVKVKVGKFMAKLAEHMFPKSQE
UniProt Q06481, whole entry, looked up: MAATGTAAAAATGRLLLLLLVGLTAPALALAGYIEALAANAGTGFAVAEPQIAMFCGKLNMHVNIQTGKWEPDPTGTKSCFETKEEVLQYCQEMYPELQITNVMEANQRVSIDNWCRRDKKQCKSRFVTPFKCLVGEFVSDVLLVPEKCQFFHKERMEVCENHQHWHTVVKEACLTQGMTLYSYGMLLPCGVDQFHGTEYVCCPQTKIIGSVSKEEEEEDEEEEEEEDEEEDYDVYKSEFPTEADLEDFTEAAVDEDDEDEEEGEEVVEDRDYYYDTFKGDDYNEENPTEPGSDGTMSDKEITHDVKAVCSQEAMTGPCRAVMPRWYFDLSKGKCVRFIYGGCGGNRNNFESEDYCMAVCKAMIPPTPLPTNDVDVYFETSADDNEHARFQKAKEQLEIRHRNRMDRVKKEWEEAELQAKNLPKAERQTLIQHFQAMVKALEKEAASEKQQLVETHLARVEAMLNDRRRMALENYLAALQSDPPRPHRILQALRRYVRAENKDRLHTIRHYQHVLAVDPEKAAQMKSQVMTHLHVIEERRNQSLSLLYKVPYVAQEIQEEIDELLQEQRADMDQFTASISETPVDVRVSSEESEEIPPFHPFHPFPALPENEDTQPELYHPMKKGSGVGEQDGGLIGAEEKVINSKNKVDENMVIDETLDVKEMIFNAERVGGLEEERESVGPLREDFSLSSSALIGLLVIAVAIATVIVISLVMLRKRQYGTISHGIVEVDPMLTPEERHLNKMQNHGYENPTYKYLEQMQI
UniProt O14497, whole entry, looked up: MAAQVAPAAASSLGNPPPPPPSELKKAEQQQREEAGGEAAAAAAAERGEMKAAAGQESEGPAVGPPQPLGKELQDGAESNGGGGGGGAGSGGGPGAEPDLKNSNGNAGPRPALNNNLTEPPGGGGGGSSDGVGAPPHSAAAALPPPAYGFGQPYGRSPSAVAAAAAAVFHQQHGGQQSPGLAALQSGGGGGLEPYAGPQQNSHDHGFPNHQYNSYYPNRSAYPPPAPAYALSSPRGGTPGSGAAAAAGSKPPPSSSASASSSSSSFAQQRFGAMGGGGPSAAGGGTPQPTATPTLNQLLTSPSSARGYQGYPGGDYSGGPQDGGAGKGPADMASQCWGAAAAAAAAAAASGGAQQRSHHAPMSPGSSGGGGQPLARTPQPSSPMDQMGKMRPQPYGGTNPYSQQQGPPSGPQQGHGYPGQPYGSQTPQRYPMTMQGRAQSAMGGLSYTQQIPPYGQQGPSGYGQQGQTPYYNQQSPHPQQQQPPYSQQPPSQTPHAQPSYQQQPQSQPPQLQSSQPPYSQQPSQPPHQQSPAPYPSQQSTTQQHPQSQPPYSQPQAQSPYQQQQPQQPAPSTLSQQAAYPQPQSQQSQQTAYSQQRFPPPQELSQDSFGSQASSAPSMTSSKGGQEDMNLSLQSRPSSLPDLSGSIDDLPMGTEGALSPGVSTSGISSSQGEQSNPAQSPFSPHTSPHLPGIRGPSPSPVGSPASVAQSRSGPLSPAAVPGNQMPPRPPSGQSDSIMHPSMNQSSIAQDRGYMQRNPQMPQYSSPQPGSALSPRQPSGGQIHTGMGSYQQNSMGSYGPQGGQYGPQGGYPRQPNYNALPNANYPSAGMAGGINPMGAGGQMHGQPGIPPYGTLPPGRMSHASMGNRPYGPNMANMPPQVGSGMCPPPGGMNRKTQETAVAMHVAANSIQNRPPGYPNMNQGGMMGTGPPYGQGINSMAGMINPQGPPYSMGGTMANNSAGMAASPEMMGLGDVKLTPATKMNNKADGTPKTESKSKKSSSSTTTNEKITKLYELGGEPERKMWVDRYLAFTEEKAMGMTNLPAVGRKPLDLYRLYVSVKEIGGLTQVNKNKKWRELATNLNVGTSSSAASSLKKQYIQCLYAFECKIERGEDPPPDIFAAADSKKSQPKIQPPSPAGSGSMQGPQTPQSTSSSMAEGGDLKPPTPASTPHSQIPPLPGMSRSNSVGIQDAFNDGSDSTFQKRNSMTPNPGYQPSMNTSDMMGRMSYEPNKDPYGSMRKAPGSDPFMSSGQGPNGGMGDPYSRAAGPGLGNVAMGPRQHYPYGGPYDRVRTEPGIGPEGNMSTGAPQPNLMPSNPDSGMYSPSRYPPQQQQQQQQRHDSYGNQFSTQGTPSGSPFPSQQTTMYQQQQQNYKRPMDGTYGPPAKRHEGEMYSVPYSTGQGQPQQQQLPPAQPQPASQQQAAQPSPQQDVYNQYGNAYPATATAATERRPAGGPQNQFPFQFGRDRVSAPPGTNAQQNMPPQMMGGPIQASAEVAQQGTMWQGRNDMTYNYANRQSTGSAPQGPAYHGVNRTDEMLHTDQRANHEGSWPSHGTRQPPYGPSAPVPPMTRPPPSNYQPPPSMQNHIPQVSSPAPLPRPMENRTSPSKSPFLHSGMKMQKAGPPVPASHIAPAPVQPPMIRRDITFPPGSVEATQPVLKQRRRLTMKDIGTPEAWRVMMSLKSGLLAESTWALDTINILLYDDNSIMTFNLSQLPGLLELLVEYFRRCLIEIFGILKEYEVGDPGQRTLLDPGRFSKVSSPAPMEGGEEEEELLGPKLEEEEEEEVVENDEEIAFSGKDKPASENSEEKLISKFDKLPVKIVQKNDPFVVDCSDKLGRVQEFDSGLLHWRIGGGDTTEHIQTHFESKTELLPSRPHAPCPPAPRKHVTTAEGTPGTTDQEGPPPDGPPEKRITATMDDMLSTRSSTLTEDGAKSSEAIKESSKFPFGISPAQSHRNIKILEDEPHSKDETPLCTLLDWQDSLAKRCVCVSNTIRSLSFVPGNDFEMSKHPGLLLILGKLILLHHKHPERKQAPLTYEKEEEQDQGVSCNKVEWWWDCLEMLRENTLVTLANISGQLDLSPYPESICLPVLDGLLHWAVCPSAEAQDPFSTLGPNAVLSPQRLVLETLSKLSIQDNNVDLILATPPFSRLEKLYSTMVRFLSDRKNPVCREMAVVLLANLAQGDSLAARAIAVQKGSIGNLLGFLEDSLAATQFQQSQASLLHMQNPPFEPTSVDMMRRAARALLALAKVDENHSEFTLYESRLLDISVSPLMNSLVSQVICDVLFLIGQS
UniProt Q07960: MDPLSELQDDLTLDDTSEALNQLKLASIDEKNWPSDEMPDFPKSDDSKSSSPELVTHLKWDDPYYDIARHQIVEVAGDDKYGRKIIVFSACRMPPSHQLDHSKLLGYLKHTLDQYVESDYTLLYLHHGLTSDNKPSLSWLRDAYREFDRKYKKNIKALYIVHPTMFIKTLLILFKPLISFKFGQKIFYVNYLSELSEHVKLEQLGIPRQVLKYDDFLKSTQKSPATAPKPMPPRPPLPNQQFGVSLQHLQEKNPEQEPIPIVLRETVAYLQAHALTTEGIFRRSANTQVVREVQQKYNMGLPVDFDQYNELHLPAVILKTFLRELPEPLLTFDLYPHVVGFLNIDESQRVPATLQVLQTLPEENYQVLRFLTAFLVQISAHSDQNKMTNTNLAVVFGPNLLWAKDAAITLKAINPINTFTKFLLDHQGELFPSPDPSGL
UniProt Q99767, whole entry, looked up: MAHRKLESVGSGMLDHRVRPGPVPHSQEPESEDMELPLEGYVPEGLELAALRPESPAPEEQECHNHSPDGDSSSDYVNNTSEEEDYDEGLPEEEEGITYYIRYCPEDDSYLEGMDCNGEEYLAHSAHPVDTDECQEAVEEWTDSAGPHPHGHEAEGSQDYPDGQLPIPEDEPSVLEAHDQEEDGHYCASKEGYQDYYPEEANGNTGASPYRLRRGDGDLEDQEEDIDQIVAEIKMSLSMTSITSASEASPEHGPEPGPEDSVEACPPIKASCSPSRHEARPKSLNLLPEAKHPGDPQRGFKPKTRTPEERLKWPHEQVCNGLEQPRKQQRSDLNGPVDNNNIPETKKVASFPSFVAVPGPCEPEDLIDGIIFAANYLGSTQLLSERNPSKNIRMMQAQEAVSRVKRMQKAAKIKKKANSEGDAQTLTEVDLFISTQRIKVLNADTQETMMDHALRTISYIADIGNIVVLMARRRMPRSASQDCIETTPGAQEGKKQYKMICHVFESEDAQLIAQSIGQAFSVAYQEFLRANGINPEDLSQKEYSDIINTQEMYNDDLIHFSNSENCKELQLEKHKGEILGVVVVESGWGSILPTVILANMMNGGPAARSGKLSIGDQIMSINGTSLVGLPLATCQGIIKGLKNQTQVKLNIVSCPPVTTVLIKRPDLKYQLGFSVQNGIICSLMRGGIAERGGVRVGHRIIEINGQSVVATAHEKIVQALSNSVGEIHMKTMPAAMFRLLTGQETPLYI

What was measured:
Test in all cases: log2 fold change, soluble protein after heating vs DMSO (PISA); higher = thermal stabilisation; K562 lysate, 10 uM; active = over 0.2 and 3.5 SD of the protein, either way, in both replicates (recomputed)
vemurafenib = compound: CCCS(=O)(=O)Nc1ccc(F)c(C(=O)c2c[nH]c3ncc(-c4ccc(Cl)cc4)cc23)c1F [vemurafenib]
Method in brief: (§1)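 Soluble protein was defined as the supernatant remaining after 21,000xg for 90 min, following pooling of heated aliquots and adjustment to 0.5% NP-40 at 4°C. Before that, crude K562 extract at 1 mg/mL protein in PBS pH 7.4 with 1 mM MgCl2 was treated with 10 μM compound for 30 min and heated for 3 min across 48°C-58°C. Quantification used TMTpro 16plex LC-MS/MS with channel sums equalised, and values are log-two fold changes in thermal stability relative to solvent controls from duplicates.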

[1] = compound: CCCS(=O)(=O)Nc1ccc(F)c(C(=O)c2c[nH]c3ncc(Cl)cc23)c1F
Method in brief: as §1

barasertib = compound: CCN(CCCOc1ccc2c(Nc3cc(CC(=O)Nc4cccc(F)c4)[nH]n3)ncnc2c1)CCOP(=O)(O)O [barasertib]
Method in brief: as §1

[2] = compound: CC[C@@H]1C(=O)N(C)c2cnc(Nc3ccc(C(=O)NC4CCN(C)CC4)cc3OC)nc2N1C1CCCC1
Method in brief: as §1

volasertib = compound: CC[C@@H]1C(=O)N(C)c2cnc(Nc3ccc(C(=O)N[C@H]4CC[C@H](N5CCN(CC6CC6)CC5)CC4)cc3OC)nc2N1C(C)C [volasertib]
Method in brief: as §1

[3] = compound: CCn1c(C(=O)N(C2CC2)C2CC2)cc2c3c(ncn3C)c(Nc3cc(C)n(C)n3)nc21
Method in brief: as §1

[4] = compound: CCn1cc(-c2ccnc3[nH]c(-c4cccc(CN(C)C)c4)cc23)c(-c2ccc(NC(=O)N(C)C)cc2)n1
Method in brief: as §1

[5] = compound: CN1CCC(CNc2ccc3ncc(-c4cccc(OC(F)(F)F)c4)n3n2)CC1
Method in brief: as §1

saracatinib = compound: CN1CCN(CCOc2cc(OC3CCOCC3)c3c(Nc4c(Cl)ccc5c4OCO5)ncnc3c2)CC1 [saracatinib]
Method in brief: as §1

sotrastaurin = compound: CN1CCN(c2nc(C3=C(c4c[nH]c5ccccc45)C(=O)NC3=O)c3ccccc3n2)CC1 [sotrastaurin]
Method in brief: as §1

alvocidib = compound: CN1CC[C@H](c2c(O)cc(O)c3c(=O)cc(-c4ccccc4Cl)oc23)[C@H](O)C1 [alvocidib]
Method in brief: as §1

Tubastatin A = compound: CN1CCc2c(c3ccccc3n2Cc2ccc(C(=O)NO)cc2)C1 [Tubastatin A]
Method in brief: as §1

[6] = compound: CNC(=O)C1=CC=CC=C1NC2=NC(=NC=C2Cl)NC3=C(C=C(C=C3)N4CCOCC4)OC
Method in brief: as §1

defactinib = compound: CNC(=O)c1ccc(Nc2ncc(C(F)(F)F)c(NCc3nccnc3N(C)S(C)(=O)=O)n2)cc1 [defactinib]
Method in brief: as §1

[7] = compound: CNc1nc(-c2ccc3c(N)n[nH]c3c2)cc(N2C[C@@H](C(=O)NC3CCCCC3)CC[C@H]2C)n1
Method in brief: as §1

encorafenib = compound: COC(=O)N[C@@H](C)CNc1nccc(-c2cn(C(C)C)nc2-c2cc(Cl)cc(NS(C)(=O)=O)c2F)n1 [encorafenib]
Method in brief: as §1

[8] = compound: COC(=O)[C@H](CCSC)NC(=O)C1=C(C=C(C=C1)NC[C@H](CS)N)C2=CC=CC=C2
Method in brief: as §1

alisertib = compound: COc1cc(Nc2ncc3c(n2)-c2ccc(Cl)cc2C(c2c(F)cccc2OC)=NC3)ccc1C(=O)O [alisertib]
Method in brief: as §1

[9] = compound: COc1cc2nc(-c3cc(F)ccc3O)nc(N[C@@H]3CNC[C@H]3C(C)(C)O)c2cc1OC
Method in brief: as §1

gefitinib = compound: COc1cc2ncnc(Nc3ccc(F)c(Cl)c3)c2cc1OCCCN1CCOCC1 [gefitinib]
Method in brief: as §1

Measured: log2 fold change

ARMT1 (UniProt Q9H993)
inactive: vemurafenib 0.013 | [1] 0.016 | barasertib -0.029 | [2] -0.03 | volasertib -0.094 | [3] 0.016 | [4] 0.01 | [5] -0.074 | saracatinib 0.037 | sotrastaurin 0.039 | alvocidib 0.043 | Tubastatin A -0.123 | [6] -0.042 | defactinib 0.008 | [7] -0.062 | encorafenib -0.005 | [8] 0.164 | alisertib 0.013 | [9] 0.003 | gefitinib -0.029

ARPIN isoform 2 (UniProt Q7Z6K5)
inactive: vemurafenib 0.08 | [1] 0.04 | barasertib 0.165 | [2] 0.1 | volasertib -0.042 | [3] -0.006 | [4] -0.011 | [5] 0.066 | saracatinib 0.104 | sotrastaurin 0.039 | alvocidib -0.143 | Tubastatin A -0.016 | [6] -0.03 | defactinib 0 | [7] 0.114 | encorafenib -0.114 | [8] -0.26 | alisertib -0.077 | [9] -0.013 | gefitinib 0.005

ASAH1 isoform 2 (UniProt Q13510)
inactive: vemurafenib 0.019 | [1] 0.018 | barasertib -0.051 | [2] -0.009 | volasertib 0.056 | [3] -0.019 | [4] -0.119 | [5] 0.081 | saracatinib 0.035 | sotrastaurin 0.034 | alvocidib 0.044 | Tubastatin A -0.015 | [6] 0.006 | defactinib 0.028 | [7] -0.027 | encorafenib 0.082 | [8] -0.032 | alisertib -0.007 | [9] 0.009 | gefitinib -0.074

APOBR (UniProt Q0VD83)
inactive: vemurafenib -0.019 | [1] 0.044 | barasertib 0.024 | [2] 0.037 | volasertib 0.022 | [3] -0.051 | [4] 0.016 | [5] 0.007 | saracatinib 0.035 | sotrastaurin 0.014 | alvocidib 0.04 | Tubastatin A 0.049 | [6] 0.002 | defactinib -0.011 | [7] 0.043 | encorafenib 0.005 | [8] -0.001 | alisertib 0.041 | [9] 0.038 | gefitinib 0.021

ARID3A (UniProt Q99856)
inactive: vemurafenib -0.011 | [1] -0.012 | barasertib 0.051 | [2] 0.014 | volasertib -0.009 | [3] 0.001 | [4] 0.025 | [5] -0.051 | saracatinib -0.011 | sotrastaurin 0.017 | alvocidib 0.038 | Tubastatin A -0.024 | [6] -0.022 | defactinib 0.062 | [7] 0.019 | encorafenib 0.022 | [8] 0.069 | alisertib 0.025 | [9] 0.019 | gefitinib -0.026

ARMCX3 (UniProt Q9UH62)
inactive: vemurafenib -0.024 | [1] 0.027 | barasertib 0.102 | [2] -0.033 | volasertib -0.045 | [3] 0.021 | [4] -0.01 | [5] -0.049 | saracatinib 0.012 | sotrastaurin 0.016 | alvocidib 0.022 | Tubastatin A -0.061 | [6] -0.018 | defactinib 0.017 | [7] 0.026 | encorafenib -0.006 | [8] 0.015 | alisertib 0.055 | [9] 0.042 | gefitinib -0.053

APMAP (UniProt Q9HDC9)
inactive: vemurafenib 0.011 | [1] -0.001 | barasertib 0.03 | [2] -0.003 | volasertib 0.02 | [3] 0.007 | [4] 0.014 | [5] 0.03 | saracatinib -0.005 | sotrastaurin 0.003 | alvocidib -0.023 | Tubastatin A 0.025 | [6] -0.018 | defactinib -0.04 | [7] -0.047 | encorafenib 0.063 | [8] -0.05 | alisertib -0.002 | [9] 0.006 | gefitinib 0.019

APLP2 (UniProt Q06481)
inactive: vemurafenib 0.047 | [1] -0.023 | barasertib -0.046 | [2] 0.064 | volasertib -0.002 | [3] -0.042 | [4] 0.008 | [5] 0.056 | saracatinib 0.007 | sotrastaurin 0.01 | alvocidib -0.005 | Tubastatin A 0.059 | [6] -0.002 | defactinib -0.017 | [7] -0.14 | encorafenib -0.017 | [8] -0.059 | alisertib 0.018 | [9] 0.029 | gefitinib -0.017

ARHGAP5 (UniProt Q13017)
inactive: vemurafenib 0.019 | [1] 0.046 | barasertib 0.022 | [2] 0.037 | volasertib 0.02 | [3] 0.142 | [4] -0.026 | [5] -0.051 | saracatinib 0.004 | sotrastaurin 0.032 | alvocidib 0.007 | Tubastatin A 0.01 | [6] -0.082 | defactinib 0.037 | [7] -0.005 | encorafenib 0.082 | [8] 0 | alisertib 0.005 | [9] 0.059 | gefitinib -0.018

API5 isoform 2 (UniProt Q9BZZ5)
inactive: vemurafenib -0.048 | [1] 0.081 | barasertib 0.037 | [2] 0.032 | volasertib -0.131 | [3] -0.066 | [4] 0.133 | [5] -0.021 | saracatinib -0.007 | sotrastaurin 0.087 | alvocidib 0.097 | Tubastatin A 0.024 | [6] -0.067 | defactinib -0.006 | [7] -0.046 | encorafenib 0.016 | [8] 0.052 | alisertib 0.019 | [9] 0.036 | gefitinib 0.115

ARID1A (UniProt O14497)
inactive: vemurafenib 0.011 | [1] 0.009 | barasertib 0.102 | [2] -0.053 | volasertib -0.027 | [3] 0.03 | [4] -0.003 | [5] -0.004 | saracatinib -0.006 | sotrastaurin 0.012 | alvocidib 0.009 | Tubastatin A -0.052 | [6] -0.009 | defactinib 0 | [7] -0.015 | encorafenib 0.011 | [8] 0.041 | alisertib 0.019 | [9] 0.004 | gefitinib -0.013

ARHGAP1 (UniProt Q07960)
inactive: vemurafenib 0.012 | [1] 0.007 | barasertib -0.024 | [2] 0.012 | volasertib 0.031 | [3] -0.028 | [4] -0.004 | [5] 0.024 | saracatinib -0.009 | sotrastaurin 0.015 | alvocidib -0.01 | Tubastatin A 0.101 | [6] 0.023 | defactinib 0 | [7] 0.002 | encorafenib -0.018 | [8] 0 | alisertib 0.014 | [9] 0.045 | gefitinib -0.004

AQR (UniProt O60306)
inactive: vemurafenib 0.034 | [1] 0.027 | barasertib 0.012 | [2] -0.063 | volasertib -0.083 | [3] 0.011 | [4] -0.062 | [5] 0.01 | saracatinib -0.049 | sotrastaurin 0.033 | alvocidib 0.01 | Tubastatin A -0.04 | [6] 0.015 | defactinib 0.015 | [7] -0.013 | encorafenib -0.016 | [8] 0.062 | alisertib -0.003 | [9] 0.016 | gefitinib -0.008

ARHGEF11 isoform 2 (UniProt O15085)
inactive: vemurafenib 0.076 | [1] 0.081 | barasertib -0.094 | [2] 0.025 | volasertib 0.037 | [3] -0.033 | [4] -0.023 | [5] 0.003 | saracatinib 0.024 | sotrastaurin -0.005 | alvocidib 0.019 | Tubastatin A 0.093 | [6] -0.075 | defactinib -0.106 | [7] -0.023 | encorafenib 0.007 | [8] 0.059 | alisertib -0.018 | [9] 0.012 | gefitinib 0.077

APBA2 (UniProt Q99767)
inactive: vemurafenib 0.003 | [1] 0 | barasertib 0.035 | [2] -0.043 | volasertib 0.017 | [3] -0.028 | [4] -0.157 | [5] 0.15 | saracatinib 0.021 | sotrastaurin 0.057 | alvocidib -0.068 | Tubastatin A -0.027 | [6] -0.041 | defactinib 0.013 | [7] 0.018 | encorafenib 0.002 | [8] 0.088 | alisertib -0.042 | [9] 0.001 | gefitinib -0.009

ARPC2 (UniProt O15144)
inactive: vemurafenib -0.002 | [1] -0.007 | barasertib -0.008 | [2] -0.015 | volasertib 0.032 | [3] 0.007 | [4] -0.043 | [5] 0.034 | saracatinib 0.006 | sotrastaurin 0.016 | alvocidib 0.013 | Tubastatin A 0.031 | [6] 0.004 | defactinib -0.014 | [7] -0.031 | encorafenib -0.013 | [8] -0.017 | alisertib 0 | [9] 0.006 | gefitinib 0.002

Pulled one by one from the entries so far, 2 records:
AQR (UniProt O60306)
inactive: vemurafenib 0.034 | [1] 0.027 | barasertib 0.012 | [2] -0.063 | volasertib -0.083 | [3] 0.011 | [4] -0.062 | [5] 0.01 | saracatinib -0.049 | sotrastaurin 0.033 | alvocidib 0.01 | Tubastatin A -0.04 | [6] 0.015 | defactinib 0.015 | [7] -0.013 | encorafenib -0.016 | [8] 0.062 | alisertib -0.003 | [9] 0.016 | gefitinib -0.008

ARHGAP1 (UniProt Q07960)
inactive: vemurafenib 0.012 | [1] 0.007 | barasertib -0.024 | [2] 0.012 | volasertib 0.031 | [3] -0.028 | [4] -0.004 | [5] 0.024 | saracatinib -0.009 | sotrastaurin 0.015 | alvocidib -0.01 | Tubastatin A 0.101 | [6] 0.023 | defactinib 0 | [7] 0.002 | encorafenib -0.018 | [8] 0 | alisertib 0.014 | [9] 0.045 | gefitinib -0.004
